PubChem BioAssay AID504784 – Drosophila RNAi Screening Center | 2011
Test: 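Genome-wide knock-down for genes giving too much or too little stored lipid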 (primary screen). Cells: Drosophila Kc167 embryonic cells. Knock-down reagent: long dsRNA against Drosophila genes, about 250 ng dsRNA per well. Time to read-out: 4 days. Conditions: cells fed 400 µM oleic acid bound to BSA. Measured: 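Cells imaged and segmented; ratio of lipid droplet area to nuclear area, log-transformed, then normalised as a B-score over the screen; higher means more stored lipid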. Scale: droplet/nuclear area B-score: higher = more stored lipid (overstorage).
The screen tested about 17,000 reagents; below is a random part of those that have a named target and a result. 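Each column is one replicate's B-score; the combined score over replicates was not deposited, so single values may mislead.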 Names joined by + are all predicted targets of the reagent.

Target gene,DRSC id,"droplet/nuclear area B-score, replicate 1","droplet/nuclear area B-score, replicate 2","droplet/nuclear area B-score, replicate 3"
Ype (Yippee),DRSC20301,-1.1,-0.489,-0.0865
CG12341,DRSC06133,-0.21,0.0859,
Vps29 (Vacuolar protein sorting 29),DRSC00666,0.14,0.917,
CG5084,DRSC06913,1.73,2.88,
Pstk + CG14210 + Tim9b,DRSC19566,-1.83,0.0608,
CG15534,DRSC15070,-1.23,-0.488,
Cul1 (Cullin 1),DRSC07645,1.27,1.19,
MRP (Multidrug-Resistance like Protein 1),DRSC02942,0.947,1.33,
Josd (Josephin domain containing),DRSC18323,1.5,-0.656,
CG12594,DRSC14532,1.8,-0.383,
Obp57e (Odorant-binding protein 57e),DRSC05891,0.0743,-0.025,
CG14687,DRSC14910,-0.373,0.371,0.933
nemy (no extended memory),DRSC05357,-0.0747,-1.17,
nemy (no extended memory),DRSC07262,-0.00861,-1.54,-2.12
ORY (Occludin-Related Y),DRSC22883,2.67,-0.572,
CG14569,DRSC11730,-0.29,-0.43,
CG3603,DRSC18317,-0.0364,0.385,
mtm (myotubularin),DRSC03576,-0.449,-1.07,
CG31909,DRSC22180,-0.673,-3.22,
br (broad),DRSC17691,0.342,2.3,
br (broad),DRSC17789,0.0419,-0.141,
br (broad),DRSC18743,0.924,-1.02,-1.59
br (broad),DRSC18744,0.745,0.239,
Fs (Follistatin),DRSC06258,-0.0596,-1.1,
Fs (Follistatin),DRSC06259,0.802,-0.674,
CG31100,DRSC14453,-0.535,1.64,
CG31100,DRSC14455,-0.135,-0.913,
Hn (Henna),DRSC11184,0.0119,-0.963,
pkaap,DRSC01925,-0.179,0.0356,
COX5BL (Cytochrome c oxidase subunit 5B-like),DRSC02123,-0.201,1.41,
slif (slimfast),DRSC11635,-1.52,-0.393,-0.189
CG31810,DRSC01560,0.923,3.18,
CG33288,DRSC11484,-0.132,-0.723,
CG14695,DRSC14918,0.00634,1.46,
CG8360,DRSC03085,1.26,-0.949,-1.03

Taken from above:
For “droplet/nuclear area B-score, replicate 2”, MRP (Multidrug-Resistance like Protein 1) [DRSC02942] reads 1.33
nemy (no extended memory) [DRSC05357], droplet/nuclear area B-score, replicate 1 → -0.0747
br (broad) [DRSC18743], droplet/nuclear area B-score, replicate 1 → 0.924
Under “droplet/nuclear area B-score, replicate 1”, br (broad) [DRSC18744] shows 0.745
Result of CG31100 [DRSC14455] under “droplet/nuclear area B-score, replicate 2”: -0.913
Entry of CG12341 [DRSC06133] in “droplet/nuclear area B-score, replicate 2”: 0.0859

Further entries follow:
Target gene,DRSC id,"droplet/nuclear area B-score, replicate 1","droplet/nuclear area B-score, replicate 2","droplet/nuclear area B-score, replicate 3"
bam (bag of marbles),DRSC16907,-1.69,0.107,
Noc3 (Nucleolar complex protein 3),DRSC12535,-0.0189,0.302,
NijC (Ninjurin C),DRSC14851,-1.02,-0.171,
CG13625,DRSC14627,2.39,-0.422,
CG10444,DRSC05990,-1.41,-0.536,
Hrs (Hepatocyte growth factor regulated tyrosine kinase substrate),DRSC00549,-0.713,0.416,
CG11951,DRSC14442,0.348,0.997,
uif (uninflatable),DRSC03427,-1.39,1.95,
rdgBbeta,DRSC07672,1.42,-0.2,
CG42372 + CG30100,DRSC05602,-0.595,0.203,
CG18223,DRSC10306,0.181,0.733,
CG7049,DRSC08587,0.206,0.749,
key (kenny),DRSC04285,-3.09,0.345,
Rh50,DRSC08692,-1.08,0.603,
CG6628,DRSC10679,-0.28,-1.06,
CG1275,DRSC08294,0.339,-1.66,
CG8128,DRSC20084,-0.01,1.76,-0.307
CNMa (CNMamide),DRSC08405,-0.935,0.0666,
RpL7 (Ribosomal protein L7),DRSC03417,4.41,3.53,
CG3587,DRSC18541,0.313,-1.02,-3.43
CG3587,DRSC21966,0.201,0.487,
